Experimental data: PubChem BioAssay AID504771 (Drosophila RNAi Screening Center, 2011)

Test: 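Fly cell regulators of aggregate formation by polyglutamine huntingtin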 (follow-up of hits)
System: Drosophila S2 cells with copper-inducible mutant huntingtin exon 1 (46 glutamines)-eGFP
Reagents: long dsRNA against Drosophila genes, 250 ng dsRNA per well
Timing: 3 days of knock-down, then 2 days of copper induction before fixing
Challenge: copper sulfate at 400 µM to switch on Htt-Q46-eGFP expression
Detection: 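Per-well count, size and brightness of GFP aggregates from automated images, set against plate mean and SD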
Call rule: 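Primary hit when aggregate count, size or brightness differed from plate mean by over 2 SD; called active only after clearing every validation step (off-target, repeat, second dsRNA, promoter counter-screen)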
Meaning of the calls: active = confirmed modifier; inactive = primary candidate not confirmed
Only reagents picked out of a larger screen are listed. 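All genes were primary candidates; inactive means validation failed, not no effect; aggregate scores behind calls are not deposited.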 Names joined by + are all predicted targets of the reagent.

| Target gene | amplicon | aggregation phenotype | outcome |
| --- | --- | --- | --- |
| CG32365 | DRSC10977 | knock-down lowers aggregates | inactive |
| CG3213 | DRSC00576 | knock-down lowers aggregates | inactive |
| CG13739 | DRSC06410 | knock-down lowers aggregates | inactive |
| CG31454 | DRSC22801 | knock-down raises aggregates | inactive |
| RpL7-like + CG34164 | DRSC02836 | knock-down lowers aggregates | inactive |
| GATAe | DRSC14223 | knock-down raises aggregates | inactive |
| SmD1 | DRSC09800 | knock-down lowers aggregates | inactive |
| IntS8 | DRSC07417 | knock-down raises aggregates | active |
| Su(Tpl) | DRSC10954 | knock-down lowers aggregates | inactive |
| RpL23A | DRSC08694 | knock-down lowers aggregates | inactive |
| Dgk | DRSC22236 | knock-down lowers aggregates | inactive |
| Ran | DRSC20364 | knock-down lowers aggregates | inactive |
| Rpn7 | DRSC16841 | knock-down lowers aggregates | inactive |
| Spn77Bb + Spn77Bc | DRSC10689 | knock-down raises aggregates | inactive |
| MED11 | DRSC10739 | knock-down lowers aggregates | inactive |
| MED11 | DRSC23091 | knock-down lowers aggregates | inactive |

Continued, starting with the last 3 of the part before.
| Target gene | amplicon | aggregation phenotype | outcome |
| --- | --- | --- | --- |
| Spn77Bb + Spn77Bc | DRSC10689 | knock-down raises aggregates | inactive |
| MED11 | DRSC10739 | knock-down lowers aggregates | inactive |
| MED11 | DRSC23091 | knock-down lowers aggregates | inactive |
| Caf1-55 | DRSC16596 | knock-down raises aggregates | inactive |
| CG2685 | DRSC18463 | knock-down lowers aggregates | inactive |
| CG2063 | DRSC06811 | knock-down lowers aggregates | inactive |
| Pvr | DRSC03080 | knock-down lowers aggregates | inactive |
| Edem2 | DRSC02877 | knock-down lowers aggregates | inactive |
| rept | DRSC11388 | knock-down lowers aggregates | inactive |
| Muc4B | DRSC18062 | knock-down raises aggregates | inactive |
| APC4 | DRSC18360 | knock-down lowers aggregates | inactive |
| Polr2A | DRSC20280 | knock-down lowers aggregates | inactive |
| CG12343 | DRSC06135 | knock-down lowers aggregates | inactive |
| SkpA | DRSC18833 | knock-down raises aggregates | active |
| SREBP | DRSC11182 | knock-down lowers aggregates | inactive |
| tsr | DRSC04718 | knock-down lowers aggregates | inactive |
| MED1 | DRSC11808 | knock-down lowers aggregates | inactive |
| eRF1 | DRSC11779 | knock-down lowers aggregates | inactive |
| Cpsf100 | DRSC14146 | knock-down lowers aggregates | active |
| TfIIFbeta | DRSC21447 | knock-down lowers aggregates | inactive |
| FLASH | DRSC06872 | knock-down raises aggregates | inactive |
| msk | DRSC11340 | knock-down lowers aggregates | inactive |
| Rrp47 | DRSC20124 | knock-down lowers aggregates | inactive |
| Saf6 | DRSC00633 | knock-down raises aggregates | inactive |
| ps | DRSC16388 | knock-down lowers aggregates | inactive |
| Nup107 | DRSC01999 | knock-down lowers aggregates | active |
| eIF3i | DRSC03464 | knock-down lowers aggregates | active |
| Pss | DRSC11757 | knock-down lowers aggregates | inactive |
| hay | DRSC11354 | knock-down lowers aggregates | inactive |
| Prp18 | DRSC16802 | knock-down lowers aggregates | inactive |
| RpS24 | DRSC04414 | knock-down lowers aggregates | inactive |
| CG6891 | DRSC20016 | knock-down raises aggregates | inactive |
